The results in this text go back to PMC3994006.

By UniProt entry, the sequences of proteins in these tests, tags left out.
UniProt Q9QZL0: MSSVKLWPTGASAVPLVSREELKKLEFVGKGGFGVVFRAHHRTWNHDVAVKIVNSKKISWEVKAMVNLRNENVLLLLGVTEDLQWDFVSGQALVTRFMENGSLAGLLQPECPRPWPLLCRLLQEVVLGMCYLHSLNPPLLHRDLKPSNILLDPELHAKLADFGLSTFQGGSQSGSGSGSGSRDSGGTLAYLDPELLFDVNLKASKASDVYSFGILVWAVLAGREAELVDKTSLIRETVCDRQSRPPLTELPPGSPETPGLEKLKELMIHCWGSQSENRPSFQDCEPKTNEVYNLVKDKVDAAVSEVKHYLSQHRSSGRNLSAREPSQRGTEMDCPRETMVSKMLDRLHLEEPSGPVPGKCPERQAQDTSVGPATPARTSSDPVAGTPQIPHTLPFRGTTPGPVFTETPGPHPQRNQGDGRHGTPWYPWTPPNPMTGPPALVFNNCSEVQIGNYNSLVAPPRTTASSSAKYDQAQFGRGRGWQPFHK
UniProt Q9DC51: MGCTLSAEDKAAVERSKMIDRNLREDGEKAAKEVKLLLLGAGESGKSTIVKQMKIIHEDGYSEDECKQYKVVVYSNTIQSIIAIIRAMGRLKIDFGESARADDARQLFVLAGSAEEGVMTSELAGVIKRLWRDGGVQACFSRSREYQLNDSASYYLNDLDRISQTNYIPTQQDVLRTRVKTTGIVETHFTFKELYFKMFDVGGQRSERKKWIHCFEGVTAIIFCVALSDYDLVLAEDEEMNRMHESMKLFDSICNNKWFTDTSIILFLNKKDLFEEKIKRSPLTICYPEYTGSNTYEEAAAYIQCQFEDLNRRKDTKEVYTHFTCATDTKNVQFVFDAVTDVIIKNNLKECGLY

No constants are given. Whether binding was seen depends on the method and setting. In cells and extracts the contact can be indirect. Some entries that bind do so weakly or less than the wild type. Tags and fused reporters may be left off the sequences shown.

One experiment addresses T1, Flag-RGS19 (UniProt Q9CX84).
T1 sequence: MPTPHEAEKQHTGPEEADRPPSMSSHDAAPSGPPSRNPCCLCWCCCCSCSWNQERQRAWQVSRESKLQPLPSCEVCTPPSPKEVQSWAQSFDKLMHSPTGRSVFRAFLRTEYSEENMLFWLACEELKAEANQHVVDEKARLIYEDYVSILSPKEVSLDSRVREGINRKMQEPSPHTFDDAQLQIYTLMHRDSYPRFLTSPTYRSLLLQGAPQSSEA
Briefly: co-IP; pairs co-expressed in 293T cells; Flag-tagged protein immunoprecipitated with anti-Flag M2-beads; Myc-tagged protein detected with anti-myc antibody by Western blotting.

A further experiment has as its target Flag-RIP3 (UniProt Q9QZL0). Described as above.

For Myc-GNAI3 (from UniProt Q9DC51 1-354), the binding result in the experiment with Flag-RGS19 and with Flag-RIP3 was “binds” in each case.

B1: Myc-RGS19 (protein, UniProt Q9CX84 1-216)
chain: MPTPHEAEKQHTGPEEADRPPSMSSHDAAPSGPPSRNPCCLCWCCCCSCSWNQERQRAWQVSRESKLQPLPSCEVCTPPSPKEVQSWAQSFDKLMHSPTGRSVFRAFLRTEYSEENMLFWLACEELKAEANQHVVDEKARLIYEDYVSILSPKEVSLDSRVREGINRKMQEPSPHTFDDAQLQIYTLMHRDSYPRFLTSPTYRSLLLQGAPQSSEA
For B1, the binding entry with Flag-RIP3 is given as “binds”.
